PubChem BioAssay AID1347076 (National Center for Advancing Translational Sciences (NCATS), 2019)
Screen size: about 400,000 compounds; about 13,000 (3.2%) were called active. This list was built around the results that the source calls inconclusive (neither active nor inactive); the mix of calls is not that of the screen. The call rests on the fitted dose curve; in most records, active means well fitted cell-killing curve with a large enough effect; inconclusive means small, poorly fitted or top-dose-only effect, or effect the other way; inactive means flat fitted curve, though single readings scatter. A potency beside an inconclusive call is a rough fit, not a confirmed value.

Experiment: qHTS assay for MDR1-selective chemotherapeutics: Primary screen using the drug-selected MDR subline cells KB-V1; further: nearly all actives have a fitted effect of over 60% in size
Details: KB-V1 MDR cells viability, CellTiter-Glo, 72 h; activity change, negative = cytotoxicity: at 46.1 µM (top of the series)
How it was run: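 KB-V1 MDR subline cells in DMEM (phenol-red free, 10% FBS) exposed to compounds in qHTS concentration series for 72 h at 37 degrees C. Viability read by CellTiter-Glo luminescence; concentration-effect curves fitted after normalization and correction.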
On the % scale 0 is the no-effect control and ±100 the full control effect; potency means the concentration at half of the fitted maximal effect.

| SMILES | Potency | activity change, negative = cytotoxicity |
| --- | --- | --- |
| CC[C@H](C)C(=O)O[C@H]1CCC=C2C=C[C@H](C)[C@H](CC[C@@H]3C[C@@H](O)CC(=O)O3)[C@H]21 | inconclusive: 25.9 µM [cytotoxic, single point] | – |
| O=C(NCc1ccccc1)c1nc(-c2ccc(Cl)cc2)n2c1CCCCC2 | inconclusive: 5.8 µM [cytotoxic, partial curve, poor fit] | – |
| Cc1n[nH]c(=O)nc1NCc1ccccc1 | inconclusive: 3.26 µM [rising, partial curve, poor fit] | – |
| CC(C)C(NS(=O)(=O)c1ccccc1)C(=O)N1CCCC1 (stereo not given) | inconclusive: 29.1 µM [rising, single point] | – |
| Cn1c(=O)c(Nc2ccc(O)cc2)c2c3c(cccc31)C(=O)c1ccccc1-2 | – | inactive: -10.2% |
| O=C1C(Oc2ccccc2)C(c2cccs2)N1Cc1ccc2c(c1)OCO2 (stereo not given) | inconclusive: 16.4 µM [cytotoxic, partial curve] | – |
| O=C(Nc1ccnn1C1CCN(Cc2cccc(O)c2)CC1)C1CCCC1 | – | inactive: 1.26% |
| CCOCCn1c(SCCCc2ccccc2)nc2c1c(=O)[nH]c(=O)n2C | inconclusive: 8.2 µM [cytotoxic, partial curve] | – |
| Cc1ccc(C2c3c(oc4ccccc4c3=O)C(=O)N2c2nnc(C(C)C)s2)o1 (stereo not given) | inconclusive: 18.4 µM [cytotoxic, single point] | – |
| CCC(Sc1nc(-c2ccccc2)c(-c2ccccc2)[nH]1)C(=O)O (stereo not given) | – | inactive: 18.9% |
| CC(Sc1ncn[nH]1)C(=O)Nc1cc(C(F)(F)F)ccc1Cl (stereo not given) | – | inactive: -9.08% |
| CCOc1n[nH]c(-c2ccccc2)n1 | inconclusive: 29.1 µM [rising, single point] | – |
| CC1=C(C(=O)OC(C)C)C(c2coc3ccccc3c2=O)C2=C(CCCC2=O)N1 (stereo not given) | inconclusive: 16.4 µM [cytotoxic, partial curve, poor fit] | – |
| Cc1ccc(C(C)C)c(OCc2nn(CC(=O)c3ccc(Cl)cc3)c3[n+]2CCCCC3)c1 | – | inactive: -0.366% |
| C=CCn1c(SCc2ccc(C(=O)O)cc2)nc2sc(C)c(C)c2c1=O | – | inactive: -21.2% |
| NC(=O)c1ccc(-n2nnnc2SCc2ccccc2)cc1 | – | inactive: -0.113% |
| CCOC(=O)N1CCc2cc(OC)c(OC)c3c2c1cc1cc(OC)c(OC)cc13 | active: 2.31 µM | – |
| CC(C(=O)NC1CCCCC1)N(Cc1ccccc1)C(=O)c1snc(C(N)=O)c1N (stereo not given) | inconclusive: 2.06 µM [cytotoxic, partial curve, poor fit] | – |
| Cc1cc(C)nc(N2CCCC(C(=O)Nc3nc4ccc(S(C)(=O)=O)cc4s3)C2)n1 (stereo not given) | inconclusive: 7.31 µM [cytotoxic, partial curve] | – |
| CCCCCCc1nc(C(N)=O)c2[nH]c(=O)n(-c3ccc(OC)cc3OC)c2n1 | inconclusive: 18.4 µM [cytotoxic, single point] | – |
| Cc1ccccc1NC(=O)CCn1nc(-c2ccc(Cl)cc2)c2ccccc2c1=O | – | inactive: 4.28% |
| COc1ccc2nc(SCC(=O)NC(C)c3ccccc3)[nH]c2c1 (stereo not given) | inconclusive: 3.66 µM [cytotoxic, full curve, poor fit] | – |
| S=C(NCCSCc1c(Cl)cccc1Cl)Nc1ccccc1 | active: 20.6 µM | – |
| CCn1nc(C(=O)N2CCN(Cc3nc4ccccc4s3)CC2)c2ccccc2c1=O | inconclusive: 23.1 µM [cytotoxic, single point] | – |

One compound at a time, from the list above. Values in the order: Potency	activity change, negative = cytotoxicity
`S=C(NCCSCc1c(Cl)cccc1Cl)Nc1ccccc1` as listed: active: 20.6 µM	–
`Cc1n[nH]c(=O)nc1NCc1ccccc1` as listed: inconclusive: 3.26 µM [rising, partial curve, poor fit]	–

Carrying on:

| SMILES | Potency | activity change, negative = cytotoxicity |
| --- | --- | --- |
| CCc1nc2ccc(C(=O)Nc3cccc(OC)c3)cn2c1N(CC)CCOC | inconclusive: 3.66 µM [cytotoxic, partial curve] | – |
| Cc1cc(C)nc(NC(=O)/C=C/c2ccc(Cl)cc2Cl)c1 | active: 9.2 µM | – |
| COC(=O)c1sccc1S(=O)(=O)NC(C)c1cnn(-c2ccc(OC)cc2)c1C (stereo not given) | – | inactive: -15.4% |
| CC(C)(C)OC(=O)NCc1n[nH]c(=S)n1C1CC1 | inconclusive: 5.8 µM [rising, full curve] | – |
| Cc1nc2cc(-c3cccc(F)c3)nn2c(N2CCN(C(=O)c3ccco3)CC2)c1C | – | inconclusive: -2.82% |
| Clc1ccc(CSc2nnc(-c3ccccn3)n2Cc2cccs2)cc1Cl | inconclusive: 29.1 µM [cytotoxic, single point] | – |
| O=C(CSc1nc2[nH]ncc2c(=O)[nH]1)N1CCCC1 | inconclusive: 23.1 µM [rising, single point] | – |
| Cc1nc2ccccn2c1C(=O)N/N=C/c1cc(C)n(-c2ccc(Cl)cc2)c1C | – | inactive: -27.5% |
| O=C(Nc1ccc(Cl)cc1)Nc1nnc(CSc2ccc(Cl)cc2)s1 | inconclusive: 16.4 µM [cytotoxic, partial curve, poor fit] | – |
| C[C@@H]1CNC(=O)c2c(C(=O)Nc3cccc(Cl)c3)ncn21 | – | inconclusive: -17.2% |
| Cc1ccc(S(=O)(=O)NC2CCCCCC2)cc1 | active: 20.6 µM | – |
| O=c1[nH]cnc2c1ncn2C1OCC(O)C(O)C1O (stereo not given) | inconclusive: 32.6 µM [cytotoxic, single point] | – |
| CCCOc1ccccc1NC(=O)/C=C/c1ccc(OC)c(S(=O)(=O)N2CCOCC2)c1 | – | inactive: -0.47% |
| Cc1cccc(Nc2nnc(SCC(=O)c3c(N)n(C4CC4)c(=O)[nH]c3=O)s2)c1C | inconclusive: 0.231 µM [cytotoxic, full curve] | – |
| CCOC(=O)c1c(-c2ccc(F)cc2)csc1NC(=O)CCN1C(=O)c2ccccc2C1=O | inconclusive: 13 µM [cytotoxic, partial curve] | – |
| COc1ccc(CC(=O)c2ccc(OC)c(OC)c2C)cc1OC | active: 2.31 µM | – |
| O=C(CNc1ccccc1F)Nc1cc(S(=O)(=O)N2CCCCC2)ccc1Cl | – | inactive: 16.7% |
| CN(Cc1ccccc1)c1ncnc2sccc12 | inconclusive: 11.6 µM [cytotoxic, partial curve, poor fit] | – |
| CC(=O)OC1CC2(C)C(CCC2(O)C(C)=O)C2CCC3C(Cl)C(=O)CCC3(C)C12 (stereo not given) | inconclusive: 16.4 µM [cytotoxic, partial curve, poor fit] | – |
| N#CC1=C(N)Oc2cc(N)ccc2C1c1ccc(F)cc1 (stereo not given) | – | inactive: -24.3% |
| CCC1(C)Cc2c(C#N)c(N)n(-c3ccccc3)c(=S)c2CO1 (stereo not given) | inconclusive: 16.4 µM [cytotoxic, single point] | – |
| CCOC(=O)c1c(-c2ccc(C)cc2)csc1NC(=O)C1CC=CCC1C(=O)O (stereo not given) | inconclusive: 8.2 µM [rising, partial curve, poor fit] | – |
| Cc1ccc2[nH]c(=O)c(CN(CCN3CCOCC3)C(=O)Nc3ccccc3F)cc2c1 | inconclusive: 7.31 µM [cytotoxic, partial curve] | – |
| CCc1nn2c(=O)c(S(=O)(=O)Nc3ccccc3)c(C)nc2s1 | inconclusive: 16.4 µM [cytotoxic, single point] | – |

4 compounds already listed, arranged by heavy-atom count, smallest number first:

| SMILES | Potency | activity change, negative = cytotoxicity |
| --- | --- | --- |
| O=C(CSc1nc2[nH]ncc2c(=O)[nH]1)N1CCCC1 | inconclusive: 23.1 µM [rising, single point] | – |
| NC(=O)c1ccc(-n2nnnc2SCc2ccccc2)cc1 | – | inactive: -0.113% |
| Cc1ccc(C2c3c(oc4ccccc4c3=O)C(=O)N2c2nnc(C(C)C)s2)o1 (stereo not given) | inconclusive: 18.4 µM [cytotoxic, single point] | – |
| CCOC(=O)N1CCc2cc(OC)c(OC)c3c2c1cc1cc(OC)c(OC)cc13 | active: 2.31 µM | – |

Following part

| SMILES | Potency | activity change, negative = cytotoxicity |
| --- | --- | --- |
| O=C(CC(c1ccccc1)c1ccccc1O)NCCc1ccccc1 (stereo not given) | – | inactive: -1.38% |
| CCOc1ccc(CCNC(=O)c2nn(C)c3c2CSc2ccc(C)cc2-3)cc1OCC | inconclusive: 29.1 µM [cytotoxic, single point] | – |
| O=C(NC(Cc1ccccc1)C(=O)N1CCCCC1)c1ccccc1 (stereo not given) | inconclusive: 2.59 µM [cytotoxic, full curve] | – |
| CCOC(=O)c1c(-n2c(C)cc(C=O)c2C)sc2c1CCCC2 | inconclusive: 15.8 µM [cytotoxic, single point] | – |
| CCc1cccc2c(C(=O)COC(=O)c3ccccc3)c[nH]c12 | inconclusive: 29.1 µM [cytotoxic, single point] | – |
| CCOc1ccccc1NC(=O)C1CCCCN1S(=O)(=O)c1ccccc1 (stereo not given) | active: 8.2 µM | – |
| CCOC(=O)c1c(-c2cccs2)csc1NC(=O)COC(=O)c1c(C)noc1C | active: 20.6 µM | – |
| N=c1c2c(-c3ccccc3)c(-c3ccccc3)n(Cc3ccccc3)c2ncn1CCO | active: 18.4 µM | – |
| Cc1ccc(C)c(N2CCN(C(=O)c3ccc(Cn4c(=S)[nH]c5ccc(N6CCOCC6)cc5c4=O)cc3)CC2)c1 | – | inactive: -1.04% |
| O=C1CCCN1C(=O)COc1ccccc1[N+](=O)[O-] | – | inactive: -3.27% |
| Cc1ccc(C(=O)N/N=C/c2ccc(-c3cccc(Cl)c3)o2)cn1 | inconclusive: 29.1 µM [cytotoxic, single point] | – |
| Cc1ccccc1Nc1c(-c2c[nH]c3ccccc23)nc2cccc(C)n12 | inconclusive: 29.1 µM [rising, single point] | – |
| COc1ccc(C2C=C(c3ccc(Cl)cc3)Nc3nc(NC(=O)CCC(=O)O)nn32)cc1 (stereo not given) | – | inactive: 14% |
| O=[N+]([O-])c1ccc(-[n+]2ccc3ccccc3c2)c([N+](=O)[O-])c1 | active: 5.17 µM | – |
| COc1ccccc1Nc1nc(N)nc(-c2cc3ccccc3o2)n1 | inconclusive: 29.1 µM [cytotoxic, single point] | – |
| CCN(CC)CC(O)COc1ccc2c(c1)c(C(C)=O)c(C)n2-c1ccccc1 (stereo not given) | inconclusive: 29.1 µM [cytotoxic, single point] | – |
| Cc1ccccc1Cn1c(C)c(CNCCCc2ccccc2)c(C(=O)O)c1C | inconclusive: 29.1 µM [rising, single point] | – |
| COc1ccc(-n2c(=S)[nH]c3cc(C(=O)NCc4ccc(F)cc4)ccc3c2=O)c(OC)c1 | – | inactive: -3.63% |
| COc1ccc(CCNC(=O)CS(=O)Cc2nc(-c3cccs3)oc2C)cc1OC (stereo not given) | inconclusive: 20.6 µM [cytotoxic, partial curve, poor fit] | – |
| O=C(O)Cn1c(SCCOc2ccccc2)nc2ccccc21 | inconclusive: 6.51 µM [rising, partial curve, poor fit] | – |
| Cc1ccc(S(=O)(=O)Nc2cc3c(C(=O)Nc4ccccc4)c(C)oc3c3ccccc23)cc1 | inconclusive: 9.2 µM [cytotoxic, partial curve] | – |
| COc1ccc(-c2csc3nc(-c4ccc(C)cc4)oc(=O)c23)cc1OC | inconclusive: 29.1 µM [cytotoxic, single point] | – |
